The whole screen tested about 400,000 compounds, of which about 13,000 (3.2%) were called active. Inconclusive means that the source gave no clear call. Such entries were picked first, then a sample of the others. The call rests on the fitted dose curve; in most records, active means well fitted cell-killing curve with a large enough effect; inconclusive means small, poorly fitted or top-dose-only effect, or effect the other way; inactive means flat fitted curve, though single readings scatter. Potencies beside an inconclusive call are fits to weak or partial responses and may not hold up. Where a SMILES comes first, the peptide text is derived from it. [ ]: non-standard residue; d: D form. The star is where a group is joined. Tic = O=C(O)[C@@H]1Cc2ccccc2CN1; NHPr = CCCN*
Assay: qHTS assay for MDR1-selective chemotherapeutics: Primary screen using the drug-selected MDR subline cells KB-V1; further: nearly all actives have a fitted effect of over 60% in size
Conditions: KB-V1 MDR cells viability, CellTiter-Glo, 72 h; activity change, negative = cytotoxicity: at 46.1 µM (top of the series)
Procedure, shortened: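 KB-V1 MDR subline cells in DMEM (phenol-red free, 10% FBS) exposed to compounds in qHTS concentration series for 72 h at 37 degrees C. Viability read by CellTiter-Glo luminescence; concentration-effect curves fitted after normalization and correction.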
With `COC(=O)c1ccccc1NC(=O)CCC(=O)N1CCOc2ccccc21` the “activity change, negative = cytotoxicity” value was inactive: 0.311%.
With `COCCCN(C(=O)CSc1nc2ccccc2c(=O)n1C)c1c(N)n(Cc2ccccc2)c(=O)[nH]c1=O` the “activity change, negative = cytotoxicity” value was inactive: 2.33%.
With `COc1ccc(OC)c(NC(=O)Nc2nc(C(N)CCc3ccccc3)cs2)c1` (configuration not stated) the Potency was inconclusive: 29.1 µM [cytotoxic, single point].
With `Cc1ccc(C)c(Nc2c([N+](=O)[O-])c(=O)oc3ccccc23)c1` the Potency was inconclusive: 18.4 µM [cytotoxic, partial curve, poor fit].
In the case of `CCCCn1cnc2c(SCc3ccc(Br)cc3)nc(N)nc21`, the “activity change, negative = cytotoxicity” value is reported as inactive: -10.7%.
In the case of `O=c1[nH]c2ccc(Cl)cc2c(-c2ccccc2)c1CN1CCOCC1`, the Potency is reported as inconclusive: 20.6 µM [cytotoxic, partial curve].
For `CCC(CC)NC(=O)CON=C1c2ccccc2-c2ccccc21`, the Potency was active: 23.1 µM.
In the case of `Cc1ccc(C(=O)N2CCN(c3ccc(C(F)(F)F)cn3)CC2)c(C)c1`, the Potency is reported as inconclusive: 32.6 µM [cytotoxic, partial curve, poor fit].
With `C=CCNC1=C(Cl)C(=O)N(Cc2ccccc2)C1=O` the “activity change, negative = cytotoxicity” value was inactive: 21.8%.
In the case of `COc1cccc(/C=C/C(=O)Nc2ccc3c(c2)OCCO3)c1OC`, the Potency is reported as inconclusive: 4.61 µM [cytotoxic, full curve].
With `O=C(Nc1ccc(N2CCCC2)cc1)c1ccc(Br)o1` the “activity change, negative = cytotoxicity” value was inactive: 3.6%.
With `Cc1ccc(C(=O)Nc2ccc3c(c2)C(=O)NC3=O)cc1` the Potency was inconclusive: 10.3 µM [rising, partial curve].
For `C=CCNC(=O)CN(Cc1ccccc1)S(=O)(=O)c1ccccc1`, the “activity change, negative = cytotoxicity” value was inactive: 14.2%.
In the case of `COc1cc(OC)cc(C(=O)NCCN2C(=O)S/C(=C\c3cccs3)C2=O)c1`, the Potency is reported as inconclusive: 29.1 µM [cytotoxic, single point].
In the case of `Cc1ccc(C(=O)Nc2nc(C)c(C(=O)Nc3ccc4c(c3)CCC4)s2)cc1`, the Potency is reported as active: 2.91 µM.
For `Cc1nn(C)c2c1NC(=O)CS2`, the “activity change, negative = cytotoxicity” value was inactive: 22.3%.
In the case of `COc1ccc(CC(=O)NCc2cccs2)cc1`, the Potency is reported as inconclusive: 20.6 µM [cytotoxic, single point].
In the case of `CC1(C(=O)N(CC(=O)NC2CCCC2)Cc2ccco2)CC(=O)N=C2C=CC=CN21` (configuration not stated), the Potency is reported as inconclusive: 12.6 µM [rising, single point].
For `CC1(C)CC(=O)C2=C(C1)N(N1CCOCC1)C(N)=C(C#N)C2c1cccnc1` (configuration not stated), the “activity change, negative = cytotoxicity” value was inactive: 24.7%.
In the case of `O=C(CC(=O)N/N=C/c1cccs1)NCc1ccccc1`, the Potency is reported as inconclusive: 4.11 µM [rising, full curve, poor fit].
With `Nc1c2c(nc3sc4c(c13)CCCC4)-c1ccccc1CC2` the Potency was inconclusive: 23.1 µM [cytotoxic, single point].
For `COC(=O)c1ccc(C(=O)NC2CCCc3c2cnn3-c2ccccc2F)nc1` (configuration not stated), the Potency was active: 4.11 µM.
With `O=C(N=Nc1c(O)[nH]c2ccccc12)c1ccc(CN2CCOCC2)cc1` the “activity change, negative = cytotoxicity” value was inactive: -0.977%.
With `C/C(=N\NC(=O)c1ccc(Br)cc1)c1cccc(NC(=O)c2cccnc2)c1` the “activity change, negative = cytotoxicity” value was inactive: 0.514%.
In the case of `O=C(c1ccccc1)N1CCN(CC(O)COc2ccc(Br)cc2)CC1` (configuration not stated), the Potency is reported as inconclusive: 20.6 µM [cytotoxic, single point].
In the case of `Cc1ccccc1OCCC(=O)Nc1ccc2c(C)cc(=O)oc2c1`, the “activity change, negative = cytotoxicity” value is reported as inactive: 4.23%.
For `O=C(Nc1nc2nccc(-c3ccccc3)n2n1)c1ccc(F)cc1`, the Potency was inconclusive: 23.1 µM [rising, partial curve].
For `Cn1c(SCC(=O)NNC(=O)c2ccccc2)nnc1C(F)(F)F`, the Potency was inconclusive: 32.6 µM [rising, single point].
With `C1=C(c2ccccc2)Nc2ncnn2C1c1ccccc1` (configuration not stated) the Potency was inconclusive: 5.8 µM [rising, full curve].
With `COCCNC(=O)C1CCCN(C(=O)c2cccnc2Oc2ccccc2)CC1` (configuration not stated) the “activity change, negative = cytotoxicity” value was inactive: 2.35%.
With `CCc1ccc(C(=O)OCC(=O)Nc2c(C)n(C)n(-c3ccccc3)c2=O)cc1` the Potency was inconclusive: 18.4 µM [cytotoxic, single point].
With `Cc1ccc([C@@H]2CC(=O)[C@@H]3CN(S(=O)(=O)c4ccc(C)cc4)[C@H](c4ccc(Cl)cc4)C[C@@H]3N2S(=O)(=O)c2ccc(C)cc2)cc1` the Potency was inconclusive: 32.6 µM [rising, single point].
For `O=C(Cn1nc2n(c1=O)-c1ccccc1SC2)N/N=C/c1cccs1`, the “activity change, negative = cytotoxicity” value was inactive: -22.9%.
With `CC(C)c1ccc2c(c1)C(N1CCNCC1)Cc1ccc(F)cc1S2` (configuration not stated) the Potency was inconclusive: 29.1 µM [cytotoxic, single point].
In the case of `Cc1ccc(S(=O)(=O)NC(CCc2ccccc2)CC(=O)C(C)(C)C)cc1` (configuration not stated), the Potency is reported as inconclusive: 20.6 µM [cytotoxic, single point].
For `CC1SCC(=NOCc2c(Cl)cccc2Cl)CS1` (configuration not stated), the activity change, negative = cytotoxicity was inconclusive: 35.8%.
For `CCCCCOc1ccc(/C=C/C(=O)Nc2sc(C(C)=O)c(C)c2C(=O)OCC)cc1OC`, the Potency was inconclusive: 29.1 µM [rising, single point].
With `CCCNC(=O)[C@@H]1CCCN1C(=O)[C@@H]1Cc2ccccc2CN1` (H-[Tic]-Pro-NHPr) the Potency was inconclusive: 29.1 µM [rising, single point].
With `COc1ccc(-c2nc3c4ccccc4[nH]c(=O)n3n2)cc1` the Potency was inconclusive: 6.51 µM [cytotoxic, full curve].
In the case of `CCCC(=O)NCC(c1ccc2c(c1)OCO2)N1CCN(c2ccccc2)CC1` (configuration not stated), the “activity change, negative = cytotoxicity” value is reported as inactive: -11.3%.
For `CCC(C)(C)NC(=O)C(c1ccccc1Cl)N(C(=O)CCC(=O)Nc1cc(C)on1)C(C)(C)C` (configuration not stated), the Potency was inconclusive: 8.2 µM [cytotoxic, partial curve].
In the case of `COc1ccc(-c2csc(NC(=O)CSc3nc4ccccc4c(=O)[nH]3)n2)cc1`, the “activity change, negative = cytotoxicity” value is reported as inactive: -4.41%.
In the case of `CN(C)c1ccc(C(=S)N2CCCC2)cc1Br`, the “activity change, negative = cytotoxicity” value is reported as inactive: 1.91%.
For `COc1ccccc1OCCNC(=O)CNC(=O)c1ccc(Cl)c(Cl)c1`, the Potency was inconclusive: 20.6 µM [cytotoxic, single point].
With `Cc1cccc(NC(=O)C2CCCN(C(=O)Nc3ccccc3)C2)c1C` (configuration not stated) the Potency was inconclusive: 18.4 µM [cytotoxic, single point].
In the case of `COc1ccccc1C1CC(=O)Nc2cc3c(cc21)OCCO3` (configuration not stated), the Potency is reported as active: 5.8 µM.
With `CCN(CC(=O)NCc1cccs1)C(=O)c1ccc(S(=O)(=O)Nc2ccccc2F)cc1` the “activity change, negative = cytotoxicity” value was inactive: 7.65%.

— PubChem BioAssay AID1347076 (National Center for Advancing Translational Sciences (NCATS), 2019)
On the % scale 0 is the no-effect control and ±100 the full control effect; potency means the concentration at half of the fitted maximal effect.
